Experimental data taken from PubChem BioAssay AID445 (National Center for Advancing Translational Sciences (NCATS), 2006).
The list shows a part of the results. The main result of the screen is listed elsewhere. These columns were measured beside it and carry no call. Compounds called inactive in the main read-out are mostly missing here. Potencies come from curve fits of mixed quality, noted in brackets.

assay: IkB Signaling; details: ABC-DLBCL IkBa-CBG/CBR dual luciferase ratio (green luciferase fused to IkBa over red control in OCI-Ly3 lymphoma cells), 4 h; measured here: control luc red channel unless noted
How it was run: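 Curves were fitted separately to fusion (green), unfused (red) and ratio luminescence, then classed by r2, magnitude and activity. Cells: OCI-Ly3, 4 h compound plus doxycycline at 37C; 10 uM MG-132 defined full response.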

| SMILES | AC50 |
| --- | --- |
| O=C(Cc1ccccc1)Nc1c(C(=O)Nc2ccccc2F)oc2ccccc12 | 1.58 µM [falling, full curve] |
| CCOc1ccc(-c2cc(CCCC(=O)N3CCN(c4ccc(OC)cc4)CC3)no2)cc1 | 6.31 µM [falling, partial curve] |
| O=C(Cn1ncc2c(=O)oc3ccccc3c21)NCc1ccc(Cl)cc1 | 2.51 µM [falling, full curve, poor fit] |
| O=C(NCCCN1CCN(c2ccccc2F)CC1)c1nnc(Cc2ccc(Cl)cc2Cl)o1 | 39.8 µM [falling, single point] |
| CCOC(=O)c1c(NC(=O)COc2ccc(F)cc2)sc2c1CCC(C)C2 (stereo unspecified) | 12.6 µM [falling, partial curve, poor fit] |
| N#C/C(=C\c1ccc(-c2cc(Cl)ccc2Cl)o1)C(=O)Nc1ccccc1C(=O)O | 1.58 µM [falling, full curve] |
| O=C(CSc1nc2ccccc2n1Cc1ccccc1Cl)NCc1ccccc1 | 20 µM [falling, partial curve] |
| COc1ccccc1CC(=O)N1CCN(c2cccc(C(F)(F)F)c2)CC1 | 10 µM [falling, partial curve] |
| CCOC(=O)c1[nH]cnc1C(=O)Nc1ccc(F)cc1 | 15.8 µM [rising, partial curve] |
| Cc1cc(C)c(Cn2c(C(O)c3ccccc3)nc3ccccc32)c(C)c1 (stereo unspecified) | 15.8 µM [falling, single point] |
| N#C/C(=C(/O)COC(=O)CCC1CCCCC1)c1nc2ccccc2[nH]1 | 25.1 µM [rising, single point] [measured here: IkB-luc green channel] |
| COc1ccccc1-c1cc(C(=O)NCc2ccccc2)no1 | 5.01 µM [falling, full curve] |
| CCOC(=O)c1c(-c2ccc(OC)cc2)oc2ccc(OCc3ccc(C(=O)OC)cc3)cc12 | 12.6 µM [falling, partial curve] |
| CCNc1c(NC(=O)c2cc(OCC)c(OCC)c(OCC)c2)c(=O)oc2ccccc12 | 15.8 µM [falling, partial curve] |
| CC1(C)Cc2c(sc3c2c(=N)n(Cc2ccco2)c(=O)n3CC(=O)Nc2ccc(Cl)cc2)CO1 | 3.98 µM [falling, full curve] |
| CC(C)C(OC(=O)c1cc2occc2n1C)C(=O)NCc1ccc2c(c1)OCO2 (stereo unspecified) | 15.8 µM [falling, partial curve] |
| COc1cccc(NC(=O)CN2CCN(S(=O)(=O)c3ccc(C(C)C)cc3)CC2)c1 | 12.6 µM [falling, partial curve] |
| Cc1ccc2oc(-c3ccc(C)c(NC(=O)/C=C/c4ccc(Cl)cc4)c3)nc2c1 | 2 µM [falling, full curve] |
| Cc1cc(C)cc(NC(=O)Cn2cc(C(=O)c3cccs3)c3ccccc32)c1 | 3.98 µM [falling, full curve] |
| COc1ccc(Nc2c(-c3ccc(C)o3)nc3cc(C)ccn23)cc1 | 2 µM [falling, partial curve] |
| CCOc1ccc(N2CC(NC(=O)C3CCCCC3)CC2=O)cc1 (stereo unspecified) | 6.31 µM [falling, single point] |

| SMILES | AC50 |
| --- | --- |
| Cc1cccc(C)c1-n1ncc(C(=O)NC2CCCC2)c1C1CCN(C(=O)OC(C)(C)C)CC1 | 10 µM [falling, partial curve] |
| O=C(c1ccc2c(c1)CCN2S(=O)(=O)c1ccc(Cl)cc1)N1CCN(c2ccc(F)cc2)CC1 | 10 µM [falling, partial curve] |
| CC(=O)O[C@]1(C(C)=O)CC[C@H]2[C@@H]3C[C@H](C)C4=CC(=O)CC[C@]4(C)[C@H]3CC[C@@]21C | 12.6 nM [rising, full curve] [measured here: IkB-luc green channel] |
| O=C(COc1ccc(Cl)cc1Cl)Nc1cccc2cccnc12 | 0.794 µM [rising, full curve] |
| Cc1nc(NCc2ccc3c(c2)OCO3)c2oc3ccccc3c2n1 | 12.6 µM [falling, partial curve] |
| Nc1c(C(=O)NCC2CCCO2)c2nc3ccccc3nc2n1-c1ccccc1 (stereo unspecified) | 15.8 µM [falling, partial curve] |
| O=C(NCCc1ccc(Cl)cc1)c1ccc2c(c1)N(Cc1ccc(Cl)cc1)C(=O)CS2 | 3.16 µM [falling, full curve] |
| COCCCNC(=O)CCn1c(=O)c2ccccc2n(CC(=O)Nc2cc(Cl)ccc2OC)c1=O | 0.0126 µM [rising, full curve, poor fit] |
| CCN(Cc1ccccc1)Cc1c(O)ccc2oc(C)c(C(=O)Nc3ccc(C)cc3C)c12 | 12.6 µM [falling, partial curve] |
| Cc1cccc(N2CCn3c2nc2c3c(=O)n(C/C=C/c3ccccc3)c(=O)n2C)c1 | 12.6 µM [falling, partial curve] |
| CCCCN(CC)c1nc(-c2ccccc2F)nc2ccccc12 | 12.6 µM [falling, single point] |
| COc1ccc(-c2cc(C(=O)N3CCN(c4ccccc4)CC3)no2)cc1 | 0.794 µM [falling, full curve] |
| CCc1nnc(NC(=O)c2nc(SCc3ccccc3F)ncc2Cl)s1 | 25.1 µM [falling, single point] |
| CCCCOc1ccc(Cn2c(=O)oc3ccc(C)cc32)cc1OC | 20 µM [falling, partial curve] |
| COc1ccc2c(c1)c(=O)c(C(=O)c1ccc(F)cc1)cn2CC(=O)Nc1ccc2c(c1)OCO2 | 39.8 µM [rising, single point] [measured here: IkB-luc green channel] |
| Cc1ccc(S(=O)(=O)N(CC(=O)NCCSc2ccc(Cl)cc2)c2ccccc2C)cc1 | 10 µM [falling, partial curve] |
| COc1ccc(Cl)cc1C(=O)Nc1nnc2n1CCS2 | 0.158 µM [falling, full curve, poor fit] |
| CN(Cc1ccccc1)C(=O)CSc1nc(-c2ccc(F)cc2)cc(C(F)(F)F)n1 | 6.31 µM [falling, partial curve] |
| CCCC(CCC)C(=O)NC1CC(=O)N(c2ccc3c(c2)OCCO3)C1 (stereo unspecified) | 3.98 µM [rising, partial curve] |
| COc1ccc(NC(=O)C2CCCN(c3nnc(C)c4c(C)n(-c5ccccc5)nc34)C2)cc1Cl (stereo unspecified) | 15.8 µM [falling, partial curve] |
| COc1ccccc1-n1c(CNC(=O)c2ccco2)nnc1SCC(=O)Nc1ccc(F)cc1 | 1.26 µM [falling, full curve] |

A portion of the results above, for reference:

| SMILES | AC50 |
| --- | --- |
| N#C/C(=C(/O)COC(=O)CCC1CCCCC1)c1nc2ccccc2[nH]1 | 25.1 µM [rising, single point] [measured here: IkB-luc green channel] |
| COc1ccccc1-c1cc(C(=O)NCc2ccccc2)no1 | 5.01 µM [falling, full curve] |
| CCOC(=O)c1c(-c2ccc(OC)cc2)oc2ccc(OCc3ccc(C(=O)OC)cc3)cc12 | 12.6 µM [falling, partial curve] |
| CCNc1c(NC(=O)c2cc(OCC)c(OCC)c(OCC)c2)c(=O)oc2ccccc12 | 15.8 µM [falling, partial curve] |
| CC1(C)Cc2c(sc3c2c(=N)n(Cc2ccco2)c(=O)n3CC(=O)Nc2ccc(Cl)cc2)CO1 | 3.98 µM [falling, full curve] |
| CC(C)C(OC(=O)c1cc2occc2n1C)C(=O)NCc1ccc2c(c1)OCO2 (stereo unspecified) | 15.8 µM [falling, partial curve] |
| COc1cccc(NC(=O)CN2CCN(S(=O)(=O)c3ccc(C(C)C)cc3)CC2)c1 | 12.6 µM [falling, partial curve] |
| Cc1ccc2oc(-c3ccc(C)c(NC(=O)/C=C/c4ccc(Cl)cc4)c3)nc2c1 | 2 µM [falling, full curve] |
| Cc1cc(C)cc(NC(=O)Cn2cc(C(=O)c3cccs3)c3ccccc32)c1 | 3.98 µM [falling, full curve] |
| COc1ccc(Nc2c(-c3ccc(C)o3)nc3cc(C)ccn23)cc1 | 2 µM [falling, partial curve] |
| CCOc1ccc(N2CC(NC(=O)C3CCCCC3)CC2=O)cc1 (stereo unspecified) | 6.31 µM [falling, single point] |
| Cc1cccc(C)c1-n1ncc(C(=O)NC2CCCC2)c1C1CCN(C(=O)OC(C)(C)C)CC1 | 10 µM [falling, partial curve] |
| O=C(c1ccc2c(c1)CCN2S(=O)(=O)c1ccc(Cl)cc1)N1CCN(c2ccc(F)cc2)CC1 | 10 µM [falling, partial curve] |
| CC(=O)O[C@]1(C(C)=O)CC[C@H]2[C@@H]3C[C@H](C)C4=CC(=O)CC[C@]4(C)[C@H]3CC[C@@]21C | 12.6 nM [rising, full curve] [measured here: IkB-luc green channel] |

Further entries follow:

| SMILES | AC50 |
| --- | --- |
| COCCOC(=O)c1c(-c2ccccc2)c(-c2ccccc2)nn(C)c1=O | 1.26 µM [rising, partial curve] |
| CCOc1ccc(CC(=O)Nc2c(C(=O)c3ccccc3)oc3ccc(OC)cc23)cc1OCC | 10 µM [rising, partial curve, poor fit] |
| O=C(Nc1ccc(-c2noc(CCc3ccccc3)n2)cc1)c1ccco1 | 10 µM [falling, partial curve] |
| CN(Cc1ccccc1)S(=O)(=O)c1ccc(C(=O)Nc2nnc(C3CC3)o2)cc1 | 12.6 µM [falling, partial curve] |
| C=C(C)COc1ccc(-c2nc(N)ncc2-c2ccc(OC)cc2)c(O)c1 | 15.8 µM [falling, partial curve] |
| COCCSc1nnc(NS(=O)(=O)Cc2ccccc2)s1 | 1.58 µM [falling, partial curve] |
| Nc1c(C(=O)NCCN2CCOCC2)c2nc3ccccc3nc2n1-c1ccccc1 | 15.8 µM [falling, partial curve] |
| Cc1cc(NS(=O)(=O)c2ccc3oc(=O)c4ncn(C)c4c3c2)ccc1Br | 25.1 µM [falling, single point] |
| Cc1nc2ccn(Cc3ccco3)c(=O)c2cc1C(=O)N1CCN(c2ccc(F)cc2)CC1 | 20 µM [falling, partial curve] |
| COc1cccc(CNC(=O)C(C)n2c(=O)cc(-c3ccccc3)c3c(C)nn(C)c32)c1 (stereo unspecified) | 12.6 µM [falling, single point] |
| O=C(Cn1[nH]c(=O)c2ccccc2c1=O)N1CC=C(c2ccccc2)CC1 | 15.8 µM [falling, partial curve] |
| COc1cccc(C(=O)Nc2ccc3oc(-c4cccc5c(Br)cccc45)nc3c2)c1 | 3.98 µM [falling, full curve] |
| Cc1ccc(Nc2nnc(-c3ccc(C)c(S(N)(=O)=O)c3)c3ccccc23)cc1 | 12.6 µM [falling, partial curve] |
| CCCOC(=O)c1ccc(-c2c(C)noc2-c2ccc(OC)cc2O)o1 | 20 µM [falling, partial curve] |
| CCc1ccccc1N(C)C(=O)c1ccc2c(=O)n3c(nc2c1)CCCCC3 | 20 µM [falling, single point] |
| COc1ccc(N2CCN(C(=O)CCc3c(C)nc4cc(-c5ccc(OC)cc5OC)nn4c3C)CC2)cc1 | 0.794 µM [falling, full curve] |
| CN(C)S(=O)(=O)c1ccc(C(=O)NCCSc2c(-c3ccc(Cl)cc3)[nH]c3ccccc23)cc1 | 0.631 µM [falling, full curve] |
| c1ccc(N2CCN(c3nnc(Cc4cccnc4)c4ccccc34)CC2)nc1 | 20 µM [falling, partial curve] |
| O=C(CSc1nc(-c2ccc(F)cc2)[nH]c1-c1ccc(F)cc1)Nc1ccc2c(c1)OCCO2 | 7.94 µM [falling, partial curve] |
